Measured data: PubChem BioAssay AID1224830 (NIAID, 2016)

- Purpose: 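Host factors that control LPS-induced TNF expression in human macrophages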 (primary screen)
- Cell system: human THP-1 monocytic leukaemia cells, TNF dual-luciferase reporter clone, PMA-differentiated to macrophage-like cells
- Knock-down reagent: siRNA pool against human genes, 50 nM
- Time to read-out: LPS for 4 h, given about 3 days after siRNA transfection
- Treatment: bacterial LPS (TLR4 ligand), 10 ng/ml
- Measurement: 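Ratio of firefly to renilla light, scaled to the plate median and expressed as a robust z-score per replicate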
- Scale: TNF reporter robust z-score: higher = stronger TNF reporter response to LPS
- Hit rule: 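Each well counts as active if its z-score is over 2.8 or under -1.5; controls are left without a call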
This is an unselected part of about 18,000 reagents tested. About 2,900 of all reagents (16%) count as active. 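Calls are made per well; low scores hint the gene aids the LPS response, high scores that it dampens it.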 Repeated entries: four replicate wells of each siRNA pool.

| gene | TNF reporter robust z-score | Call |
| --- | --- | --- |
| ID3 | 1.52 | inactive |
| ID3 | 2.8 | active |
| ID3 | 2.6 | inactive |
| ID3 | 2.36 | inactive |
| KRTAP4-11 | -0.62 | inactive |
| KRTAP4-11 | -0.71 | inactive |
| KRTAP4-11 | -0.54 | inactive |
| KRTAP4-11 | -0.67 | inactive |
| GRM2 | 0.02 | inactive |
| GRM2 | 0.4 | inactive |
| GRM2 | 0.27 | inactive |
| GRM2 | 2.25 | inactive |
| PRICKLE1 | -2.49 | active |
| PRICKLE1 | -1.1 | inactive |
| PRICKLE1 | -1.55 | active |
| PRICKLE1 | 0.94 | inactive |
| KIAA1191 | -0.59 | inactive |
| KIAA1191 | 0.47 | inactive |
| KIAA1191 | 0.42 | inactive |
| KIAA1191 | 0.39 | inactive |
| CLDN19 | -1.24 | inactive |
| CLDN19 | -0.85 | inactive |
| CLDN19 | -1.3 | inactive |
| CLDN19 | -0.9 | inactive |
| TTBK2 | -0.46 | inactive |
| TTBK2 | -1.35 | inactive |
| TTBK2 | -0.66 | inactive |
| TTBK2 | -0.81 | inactive |
| RAB27A | -0.14 | inactive |
| RAB27A | -0.75 | inactive |
| RAB27A | 0.05 | inactive |
| RAB27A | 0.79 | inactive |
| TAAR6 | -0.48 | inactive |
| TAAR6 | -0.43 | inactive |
| TAAR6 | -0.55 | inactive |
| TAAR6 | 0.4 | inactive |
| NEUROD1 | 0.64 | inactive |
| NEUROD1 | 0.6 | inactive |
| NEUROD1 | 0.08 | inactive |
| NEUROD1 | 0.81 | inactive |
| YBEY | -1.06 | inactive |
| YBEY | 0.1 | inactive |
| YBEY | -0.21 | inactive |
| YBEY | -0.65 | inactive |
| DYNLT5 | -1.82 | active |
| DYNLT5 | -1.46 | inactive |
| DYNLT5 | -1.97 | active |
| DYNLT5 | -2.07 | active |
| ALDH9A1 | -0.75 | inactive |
| ALDH9A1 | -0.78 | inactive |
| ALDH9A1 | -1.29 | inactive |
| ALDH9A1 | -0.36 | inactive |
| TACR2 | 0.36 | inactive |
| TACR2 | -0.55 | inactive |
| TACR2 | -0.98 | inactive |
| RBL2 | 0.55 | inactive |
| RBL2 | 1.35 | inactive |
| RBL2 | 0.68 | inactive |
| RBL2 | 1 | inactive |

An excerpt from the list above, for reference:
| gene | TNF reporter robust z-score | Call |
| --- | --- | --- |
| RAB27A | 0.79 | inactive |
| TAAR6 | -0.48 | inactive |
| TAAR6 | -0.43 | inactive |
| TAAR6 | -0.55 | inactive |
| TAAR6 | 0.4 | inactive |
| NEUROD1 | 0.64 | inactive |
| NEUROD1 | 0.6 | inactive |
| NEUROD1 | 0.08 | inactive |
| NEUROD1 | 0.81 | inactive |
| YBEY | -1.06 | inactive |
| YBEY | 0.1 | inactive |
| YBEY | -0.21 | inactive |
| YBEY | -0.65 | inactive |
| DYNLT5 | -1.82 | active |
| DYNLT5 | -1.46 | inactive |
| DYNLT5 | -1.97 | active |
| DYNLT5 | -2.07 | active |
| ALDH9A1 | -0.75 | inactive |
| ALDH9A1 | -0.78 | inactive |
| ALDH9A1 | -1.29 | inactive |
| ALDH9A1 | -0.36 | inactive |
| TACR2 | 0.36 | inactive |
| TACR2 | -0.55 | inactive |

The results go on:
| gene | TNF reporter robust z-score | Call |
| --- | --- | --- |
| LHX1 | 0.19 | inactive |
| LHX1 | -0.47 | inactive |
| LHX1 | -0.18 | inactive |
| LHX1 | -0.64 | inactive |
| C11orf42 | 0.9 | inactive |
| C11orf42 | 0.03 | inactive |
| C11orf42 | 1.67 | inactive |
| C11orf42 | -0.69 | inactive |
| NPC1 | -0.91 | inactive |
| NPC1 | -0.7 | inactive |
| NPC1 | -0.87 | inactive |
| NPC1 | -0.78 | inactive |
| FBXO42 | -0.41 | inactive |
| FBXO42 | -0.58 | inactive |
| FBXO42 | -1.76 | active |
| FBXO42 | -0.47 | inactive |
| SLC17A7 | 1.48 | inactive |
| SLC17A7 | 1.81 | inactive |
| SLC17A7 | 0.99 | inactive |
| SLC17A7 | 1.83 | inactive |
| CHD1 | 0.07 | inactive |
| CHD1 | 0.12 | inactive |
| CHD1 | 1.62 | inactive |
| CHD1 | 0.8 | inactive |
| FAM184A | 0.23 | inactive |
| FAM184A | 0.42 | inactive |
| FAM184A | -0.11 | inactive |
| FAM184A | -0.22 | inactive |
| SLC39A2 | -1.09 | inactive |
| SLC39A2 | -0.12 | inactive |
| SLC39A2 | -0.79 | inactive |
| SLC39A2 | 0.02 | inactive |
| SMR3B | 0.18 | inactive |
| SMR3B | -0.31 | inactive |
| SMR3B | 0.53 | inactive |
| SMR3B | 0.14 | inactive |
| MED21 | -1.77 | active |
| MED21 | -1.57 | active |
| MED21 | -1.87 | active |
| MED21 | -1.66 | active |
| PHF7 | 0.06 | inactive |
| PHF7 | 1.43 | inactive |
| PHF7 | 0.38 | inactive |
| PHF7 | 3.11 | active |
| ZNF776 | 1.1 | inactive |
| ZNF776 | 1.31 | inactive |
| ZNF776 | 1.23 | inactive |
| DAP | -0.73 | inactive |
| DAP | -0.39 | inactive |
| DAP | -0.51 | inactive |
| DAP | -0.95 | inactive |
| TYW2 | 0.41 | inactive |
| TYW2 | 2.15 | inactive |
| TYW2 | 1.75 | inactive |
| TYW2 | 1.41 | inactive |
| HDLBP | 1.09 | inactive |
| HDLBP | 2.8 | active |
| HDLBP | 0.39 | inactive |
| HDLBP | -0.16 | inactive |
| NAA30 | 0.52 | inactive |
| NAA30 | 0.14 | inactive |
| NAA30 | 0.23 | inactive |
| NAA30 | -0.56 | inactive |
| CLDN23 | -0.64 | inactive |
| CLDN23 | -0.76 | inactive |
| CLDN23 | -0.19 | inactive |
| CLDN23 | -0.47 | inactive |
| ZNRF3 | -1.08 | inactive |
| ZNRF3 | -0.32 | inactive |
| ZNRF3 | -0.88 | inactive |
| ZNRF3 | 0.64 | inactive |
| FAM110C | -0.92 | inactive |
| FAM110C | -0.88 | inactive |
| FAM110C | -0.93 | inactive |
| FAM110C | -0.76 | inactive |
| DCT | -0.32 | inactive |
| DCT | -0.18 | inactive |
| DCT | 0.2 | inactive |
| DCT | -0.03 | inactive |
| CYP2J2 | -0.46 | inactive |
| CYP2J2 | -0.08 | inactive |
| CYP2J2 | -0.24 | inactive |
| CYP2J2 | 0.75 | inactive |
